Results as given in patent US12018068B2, “Anti-O1 antibodies and uses thereof” (priority 2016, dated 2024).

B1: 54H7: mouse hybridoma anti-O1 antigen antibody (Ms IgG3), VH SEQ ID NO:47, VL SEQ ID NO:48 (antibody, V domains shown)
VH: QVHLQQPGSELVRPGASVTLSCKASGYTFTNYWMQWVKQRPGQGLEWIGNIYPGSGNTNYDEKFRSKATLTVDTSSSTAYMHLTSLTSEDSAVYYCTRNWNFDYWGQGTTLTVSS
VL: DIQMTQSPSSLSASLGERVSLTCRASQDIGSSLNWLQQEPDGTIKRLIYATSSLDSGVPKRFSGSRSGSEYSLTISSLEAEDFVDYYCLQHTDSPYTFGGGTKLELK
modifications: 54H7 VH; 54H7 VL Amino Acid Sequence
B2: KPE33: human anti-K. pneumoniae O1 antigen antibody, VH SEQ ID NO:8, VL SEQ ID NO:9, isolated as IgG2 from donor #262 (antibody, V domains shown)
VH: EVQLVESGGALVQPGGSLRLSCAVSGFIFDDYAIHWVRRAPGKGLEWVSGIAWKSGATNYADSVKGRFAISRDNSKKSMYLQMNSLGTEDTALYYCTRRRASGDDTFYYFDYWGQGTLVTVSS
VL: EIVLTQSPATLSLSPGERATLSCRASQNVNTNLAWYQQRPGQSPRLLIYDASTRAAGLPARFSGSGSGTDFTLTISSLEPEDFAVYYCQQCTNWRYTFGQGTKLEIK
modifications: KPE33 VH Amino Acid Sequence; KPE33 VL Amino Acid Sequence

Test system: Kp1131115 wild type and Kp1131115ΔwbbYZ strain
Assay: FACS binding to Kp1131115 wild type and Kp1131115ΔwbbYZ
Design: species or system Klebsiella pneumoniae
Conditions: concluded from wbbYZ knockout
Excerpt: Klebsiella pneumoniae wbbYZ gene locus encodes D-Galactan II domain in LPS structure, which defines O1 serotype over O2.

Molecule | domain of O1 LPS antigen bound
B1 | bind to the D-Galactan II domain
B2 | bind to the D-Galactan II domain
